This is an account of results in article PMC4825646, “MEC-10 and MEC-19 Reduce the Neurotoxicity of the MEC-4(d) DEG/ENaC Channel in Caenorhabditis elegans” (G3: Genes|Genomes|Genetics, 2016).

In the test the target is C-terminally HA-tagged MEC-19 (C. elegans). As to the kind of experiment: co-IP; Xenopus oocytes 5-6 d after cRNA injection; immunoprecipitation with rabbit polyclonal anti-HA and Protein A/G PLUS-Agarose; immunoblot with anti-Myc (9E10), anti-HA or anti-β-integrin (8C8).

No constants are given. Whether binding was seen depends on the method and setting. Binding seen in cells or lysates may run through a third protein. A result given as binding can be weak or reduced; the word gives no strength. Where a sequence is shown, tags or fusion partners need not be part of it.

B1: N-terminally Myc-tagged MEC-4(d) (protein, UniProt P24612 1-768)
chain: MSWMQNLKNYQHLRDPSEYMSQVYGDPLAYLQETTKFVTEREYYEDFGYGECFNSTESEVQCELITGEFDPKLLPYDKRLAWHFKEFCYKTSAHGIPMIGEAPNVYYRAVWVVLFLGCMIMLYLNAQSVLDKYNRNEKIVDIQLKFDTAPFPAITLCNLNPYKASLATSVDLVKRTLSAFDGAMGKAGGNKDHEEEREVVTEPPTTPAPTTKPARRRGKRDLSGAFFEPGFARCLCGSQGSSEQEDKDEEKEEELLETTTKKVFNINDADEEWDGMEEYDNEHYENYDVEATTGMNMMEECQSERTKFDEPTGFDDRCICAFDRSTHDAWPCFLNGTWETTECDTCNEHAFCTKDNKTAKGHRSPCICAPSRFCVAYNGKTPPIEIWTYLQGGTPTEDPNFLEAMGFQGMTDEVAIVTKAKENIMFAMATLSMQDRERLSTTKRELVHKCSFNGKACDIEADFLTHIDPAFGSCFTFNHNRTVNLTSIRAGPMYGLRMLVYVNASDYMPTTEATGVRLTIHDKEDFPFPDTFGYSAPTGYVSSFGLRLRKMSRLPAPYGDCVPDGKTSDYIYSNYEYSVEGCYRSCFQQLVLKECRCGDPRFPVPENARHCDAADPIARKCLDARMNDLGGLHGSFRCRCQQPCRQSIYSVTYSPAKWPSLSLQIQLGSCNGTAVECNKHYKENGAMVEVFYEQLNFEMLTESEAYGFVNLLTDFGGQLGLWCGISFLTCCEFVFLFLETAYMSAEHNYSLYKKKKAEKAKKIASGSF
Turning to B1, the binding entry was “binds”.
